{"source": "paper PMC5133869", "binders": {"B1": {"name": "receptor-interacting protein 1, Q13546 1-671 (protein)", "chain": "MQPDMSLNVIKMKSSDFLESAELDSGGFGKVSLCFHRTQGLMIMKTVYKGPNCIEHNEALLEEAKMMNRLRHSRVVKLLGVIIEEGKYSLVMEYMEKGNLMHVLKAEMSTPLSVKGRIILEIIEGMCYLHGKGVIHKDLKPENILVDNDFHIKIADLGLASFKMWSKLNNEEHNELREVDGTAKKNGGTLYYMAPEHLNDVNAKPTEKSDVYSFAVVLWAIFANKEPYENAICEQQLIMCIKSGNRPDVDDITEYCPREIISLMKLCWEANPEARPTFPGIEEKFRPFYLSQLEESVEEDVKSLKKEYSNENAVVKRMQSLQLDCVAVPSSRSNSATEQPGSLHSSQGLGMGPVEESWFAPSLEHPQEENEPSLQSKLQDEANYHLYGSRMDRQTKQQPRQNVAYNREEERRRRVSHDPFAQQRPYENFQNTEGKGTAYSSAASHGNAVHQPSGLTSQPQVLYQNNGLYSSHGFGTRPLDPGTAGPRVWYRPIPSHMPSLHNIPVPETNYLGNTPTMPFSSLPPTDESIKYTIYNSTGIQIGAYNYMEIGGTSSSLLDSTNTNFKEEPAAKYQAIFDNTTSLTDKHLDPIRENLGKHWKNCARKLGFTQSQIDEIDHDYERDGLKEKVYQMLQKWVMREGIKGATVGKLAQALHQCSRIDLLSSLIYVSQN"}, "B2": {"name": "Tumor necrosis factor receptor-associated factor 2, Q12933 1-501 (protein)", "chain": "MAAASVTPPGSLELLQPGFSKTLLGTKLEAKYLCSACRNVLRRPFQAQCGHRYCSFCLASILSSGPQNCAACVHEGIYEEGISILESSSAFPDNAARREVESLPAVCPSDGCTWKGTLKEYESCHEGRCPLMLTECPACKGLVRLGEKERHLEHECPERSLSCRHCRAPCCGADVKAHHEVCPKFPLTCDGCGKKKIPREKFQDHVKTCGKCRVPCRFHAIGCLETVEGEKQQEHEVQWLREHLAMLLSSVLEAKPLLGDQSHAGSELLQRCESLEKKTATFENIVCVLNREVERVAMTAEACSRQHRLDQDKIEALSSKVQQLERSIGLKDLAMADLEQKVLEMEASTYDGVFIWKISDFARKRQEAVAGRIPAIFSPAFYTSRYGYKMCLRIYLNGDGTGRGTHLSLFFVVMKGPNDALLRWPFNQKVTLMLLDQNNREHVIDAFRPDVTSSSFQRPVNDMNIASGCPLFCPVSKMEAKNSYVRDDAIFIKAIVDLTGL"}, "B3": {"name": "caspase-8, Q14790 1-479 (enzyme)", "chain": "MDFSRNLYDIGEQLDSEDLASLKFLSLDYIPQRKQEPIKDALMLFQRLQEKRMLEESNLSFLKELLFRINRLDLLITYLNTRKEEMERELQTPGRAQISAYRVMLYQISEEVSRSELRSFKFLLQEEISKCKLDDDMNLLDIFIEMEKRVILGEGKLDILKRVCAQINKSLLKIINDYEEFSKERSSSLEGSPDEFSNGEELCGVMTISDSPREQDSESQTLDKVYQMKSKPRGYCLIINNHNFAKAREKVPKLHSIRDRNGTHLDAGALTTTFEELHFEIKPHDDCTVEQIYEILKIYQLMDHSNMDCFICCILSHGDKGIIYGTDGQEAPIYELTSQFTGLKCPSLAGKPKVFFIQACQGDNYQKGIPVETDSEEQPYLEMDLSSPQTRYIPDEADFLLGMATVNNCVSYRNPAEGTWYIQSLCQSLRERCPRGDDILTILTEVNYEVSNKDDKKNMGKQMPQPTFTLRKKLVFPSD"}}, "key": {"[1]": {"target": "T1, Tumor necrosis factor receptor-associated factor 2 (human (endogenous in HT1080)), Q12933", "T1 chain": "B2 chain", "assay": "co-IP; endogenous proteins; HT1080 cell extracts immunoprecipitated with anti-TRAF2 antibody, then immunoblotting; cells treated with 50 ng/mL TNF-α for the indicated periods (Figure 5A) or, after control siRNA, with TNF-α and cycloheximide for 4 h (Figure 6C)", "settings": "remark: other sources report otherwise"}, "[2]": {"target": "T2, caspase-8 (human (endogenous in HT1080)), Q14790", "T2 chain": "B3 chain", "assay": "co-IP; complex II analysis: HT1080 cells (control, BIG1, TRAF2 or BIG2 siRNA) treated with 50 ng/mL TNF-α and cycloheximide for 4 h; supernatants precleared with Sepharose 6B, immunoprecipitated with caspase-8 antibody on protein G-Sepharose, immunoblotting", "settings": "remark: other sources report otherwise"}}, "note": "Results are given in words; binding and its absence hold for the method and conditions named. Binding seen in cells or lysates may run through a third protein. Some entries that bind do so weakly or less than the wild type."}
{"binder": "B1", "values": [{"measurement": "binding", "setting": "[1]", "result": "binds"}]}
{"binder": "B2", "values": [{"measurement": "binding", "setting": "[2]", "result": "binds"}]}
{"binder": "B3", "values": [{"measurement": "binding", "setting": "[1]", "result": "binds"}]}
